These are yes or no findings as the source states them, for the method shown. In cells and extracts the contact can be indirect. Some entries that bind do so weakly or less than the wild type.

Amino acid sequences for entries named in this document (tags omitted).
UniProt Q86VW2: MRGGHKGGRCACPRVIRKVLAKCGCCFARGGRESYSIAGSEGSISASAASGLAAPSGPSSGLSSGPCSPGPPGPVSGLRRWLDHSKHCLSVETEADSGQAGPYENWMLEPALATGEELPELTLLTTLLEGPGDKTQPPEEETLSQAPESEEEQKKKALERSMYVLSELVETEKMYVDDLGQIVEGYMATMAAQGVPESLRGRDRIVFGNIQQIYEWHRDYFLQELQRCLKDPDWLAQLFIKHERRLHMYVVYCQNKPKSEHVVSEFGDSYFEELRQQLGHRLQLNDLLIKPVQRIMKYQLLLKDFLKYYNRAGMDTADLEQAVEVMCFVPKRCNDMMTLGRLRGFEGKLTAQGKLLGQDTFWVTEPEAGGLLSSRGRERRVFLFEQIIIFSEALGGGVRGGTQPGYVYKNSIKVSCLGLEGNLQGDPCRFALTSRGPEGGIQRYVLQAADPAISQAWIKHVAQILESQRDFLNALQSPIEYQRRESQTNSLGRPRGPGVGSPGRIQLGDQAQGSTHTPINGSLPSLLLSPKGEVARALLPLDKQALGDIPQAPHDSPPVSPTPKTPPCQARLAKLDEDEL
UniProt Q07157: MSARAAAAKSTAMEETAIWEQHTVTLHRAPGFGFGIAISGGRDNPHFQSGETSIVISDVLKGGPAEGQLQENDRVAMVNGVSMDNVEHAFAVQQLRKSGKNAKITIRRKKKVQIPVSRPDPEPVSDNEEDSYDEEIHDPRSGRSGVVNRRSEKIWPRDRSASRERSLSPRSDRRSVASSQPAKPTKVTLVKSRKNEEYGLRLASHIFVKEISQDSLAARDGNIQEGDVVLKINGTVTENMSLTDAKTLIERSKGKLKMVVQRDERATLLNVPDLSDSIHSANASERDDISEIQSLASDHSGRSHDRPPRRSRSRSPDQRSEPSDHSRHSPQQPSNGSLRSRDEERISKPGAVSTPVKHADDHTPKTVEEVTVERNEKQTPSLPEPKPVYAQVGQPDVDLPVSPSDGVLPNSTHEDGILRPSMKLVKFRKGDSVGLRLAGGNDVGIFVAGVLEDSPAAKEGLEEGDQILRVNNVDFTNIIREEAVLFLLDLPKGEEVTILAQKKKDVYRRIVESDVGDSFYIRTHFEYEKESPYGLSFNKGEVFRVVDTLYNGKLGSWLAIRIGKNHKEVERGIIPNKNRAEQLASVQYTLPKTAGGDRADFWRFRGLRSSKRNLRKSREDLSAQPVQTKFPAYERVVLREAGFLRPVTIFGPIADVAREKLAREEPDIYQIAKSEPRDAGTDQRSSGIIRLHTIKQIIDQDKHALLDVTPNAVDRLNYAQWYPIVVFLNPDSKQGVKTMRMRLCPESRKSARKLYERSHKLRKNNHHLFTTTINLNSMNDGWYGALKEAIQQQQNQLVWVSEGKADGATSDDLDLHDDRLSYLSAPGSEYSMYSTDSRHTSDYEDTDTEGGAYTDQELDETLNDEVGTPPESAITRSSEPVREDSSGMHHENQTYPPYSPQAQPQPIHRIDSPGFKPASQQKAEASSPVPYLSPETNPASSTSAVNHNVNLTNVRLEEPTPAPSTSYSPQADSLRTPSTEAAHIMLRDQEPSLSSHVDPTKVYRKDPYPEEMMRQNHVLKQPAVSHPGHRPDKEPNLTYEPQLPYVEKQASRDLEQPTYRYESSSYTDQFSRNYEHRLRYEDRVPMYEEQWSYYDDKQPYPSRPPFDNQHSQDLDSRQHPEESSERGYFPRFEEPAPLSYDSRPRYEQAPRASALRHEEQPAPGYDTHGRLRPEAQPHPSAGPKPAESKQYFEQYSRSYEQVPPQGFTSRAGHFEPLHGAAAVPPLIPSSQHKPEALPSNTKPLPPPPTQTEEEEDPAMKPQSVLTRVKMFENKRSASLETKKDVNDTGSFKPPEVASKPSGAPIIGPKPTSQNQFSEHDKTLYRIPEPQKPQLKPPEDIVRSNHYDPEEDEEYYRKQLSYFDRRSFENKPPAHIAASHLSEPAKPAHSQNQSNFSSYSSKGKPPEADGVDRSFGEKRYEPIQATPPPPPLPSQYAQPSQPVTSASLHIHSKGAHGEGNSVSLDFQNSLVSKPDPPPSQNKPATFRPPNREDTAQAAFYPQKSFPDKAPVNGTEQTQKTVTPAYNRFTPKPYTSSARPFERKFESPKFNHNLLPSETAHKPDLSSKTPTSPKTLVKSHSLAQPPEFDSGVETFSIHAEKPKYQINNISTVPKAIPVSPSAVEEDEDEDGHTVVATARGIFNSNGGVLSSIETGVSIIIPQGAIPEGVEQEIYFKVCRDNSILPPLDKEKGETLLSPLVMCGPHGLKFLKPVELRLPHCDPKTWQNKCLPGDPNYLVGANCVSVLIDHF

The experiment addresses T1, blood vessel epicardial substance (BVES) (human (endogenous in Huh7)) (UniProt Q8NE79).
T1 sequence: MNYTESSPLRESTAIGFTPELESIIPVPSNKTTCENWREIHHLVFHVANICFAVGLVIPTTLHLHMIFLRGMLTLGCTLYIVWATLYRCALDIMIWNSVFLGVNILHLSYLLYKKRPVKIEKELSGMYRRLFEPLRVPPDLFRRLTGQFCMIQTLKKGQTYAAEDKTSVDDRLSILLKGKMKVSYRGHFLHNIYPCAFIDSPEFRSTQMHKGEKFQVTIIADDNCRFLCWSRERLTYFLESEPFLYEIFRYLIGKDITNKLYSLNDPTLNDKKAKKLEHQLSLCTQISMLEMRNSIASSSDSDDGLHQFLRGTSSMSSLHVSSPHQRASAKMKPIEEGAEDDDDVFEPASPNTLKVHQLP
In words: co-IP; BVES immunoprecipitated from NP-40 lysate of Huh7 cells with anti-BVES antibody and Protein A/G agarose beads, overnight at 4 °C, washed four times with lysis buffer; western blots for ZO-1 and GEFT; normal mouse IgG as negative control. (In general: In western blotting, separated proteins are transferred to a membrane and probed.)

For GEFT (from UniProt Q86VW2 1-580), the binding result is given as “binds”.

With “zonula occludens-1 (ZO-1) (from UniProt Q07157 1-1748)”, the binding result is “binds”.

Source of the values: article PMC9487093.
